These are yes or no findings as the source states them, for the method shown. In cells and extracts the contact can be indirect. Some entries that bind do so weakly or less than the wild type.
Biological target: T1, full-length iNOS protein (endogenous, from LPS/IFNγ-treated mouse bone marrow-derived macrophages) (mouse) (UniProt P29477)
T1 sequence: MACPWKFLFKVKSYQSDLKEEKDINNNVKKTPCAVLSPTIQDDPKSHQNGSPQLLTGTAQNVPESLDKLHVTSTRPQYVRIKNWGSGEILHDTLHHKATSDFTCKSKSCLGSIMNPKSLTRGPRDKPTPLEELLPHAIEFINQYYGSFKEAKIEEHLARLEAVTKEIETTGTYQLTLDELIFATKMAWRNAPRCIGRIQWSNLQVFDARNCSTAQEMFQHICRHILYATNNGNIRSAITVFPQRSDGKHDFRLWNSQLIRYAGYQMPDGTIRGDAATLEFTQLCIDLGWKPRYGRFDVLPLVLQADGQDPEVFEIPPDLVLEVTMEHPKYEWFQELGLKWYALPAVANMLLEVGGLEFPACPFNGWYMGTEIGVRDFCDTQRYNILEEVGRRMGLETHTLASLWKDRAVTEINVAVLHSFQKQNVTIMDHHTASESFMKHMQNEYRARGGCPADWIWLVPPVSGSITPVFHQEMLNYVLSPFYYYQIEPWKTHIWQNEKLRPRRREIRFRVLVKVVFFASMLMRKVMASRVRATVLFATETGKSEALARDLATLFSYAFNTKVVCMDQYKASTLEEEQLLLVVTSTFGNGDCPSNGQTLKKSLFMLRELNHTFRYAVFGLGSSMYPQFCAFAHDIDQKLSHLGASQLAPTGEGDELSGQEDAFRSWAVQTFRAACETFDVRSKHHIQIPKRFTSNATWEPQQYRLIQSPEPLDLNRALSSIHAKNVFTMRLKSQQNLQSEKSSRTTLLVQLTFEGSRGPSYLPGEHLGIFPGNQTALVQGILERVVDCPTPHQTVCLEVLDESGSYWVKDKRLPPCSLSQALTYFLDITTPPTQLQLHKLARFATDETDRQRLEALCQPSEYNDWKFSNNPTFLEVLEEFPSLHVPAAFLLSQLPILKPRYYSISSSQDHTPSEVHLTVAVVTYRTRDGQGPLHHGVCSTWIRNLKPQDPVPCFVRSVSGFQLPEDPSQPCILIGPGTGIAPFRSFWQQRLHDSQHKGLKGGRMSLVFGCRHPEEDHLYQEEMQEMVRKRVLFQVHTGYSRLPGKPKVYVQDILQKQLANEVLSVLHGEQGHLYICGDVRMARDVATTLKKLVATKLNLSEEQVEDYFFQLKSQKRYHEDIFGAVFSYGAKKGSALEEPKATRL
Test: co-immunoprecipitation: 293T lysate with the Flag-tagged protein mixed with iNOS-expressing BMDM lysate, anti-Flag IP, Western blot with anti-iNOS

- binding: binds
B1: SSB-2ΔSB (protein, not shown: small tags and cut ends)
chain: STPTSQALYSDFSPPEGLEELLSAPPPDLVAQRHHGWNPKDCSENIDVKEGGLCFERRPVAQSTDGVRGKRGYSRGLHAWEISWPLEQRGTHAVVGVATALAPLQADHYAALLGSNSESWGWDIGRGKLYHQSKGLEAPQYPAGPQGEQLVVPERLLVVLDMEEGTLGYSIGGTYLGPAFRGLKGRTLYPSVSAVWGQCQVRIRYMGERRVEE
modifications: N- or C-terminal Flag tag not written (letters not given).

— patent publication US20120308570A1, “METHODS FOR TREATING DISEASES” (priority 2009, published 2012)
